In paper PMC2222954:
Results are given in words; binding and its absence hold for the method and conditions named. Binding seen in cells or lysates may run through a third protein. A result given as binding can be weak or reduced; the word gives no strength. Tags and fused reporters may be left off the sequences shown.

B1: TRIM15-YFP (protein, UniProt Q9C019 1-465)
chain: MPATPSLKVVHELPACTLCAGPLEDAVTIPCGHTFCRLCLPALSQMGAQSSGKILLCPLCQEEEQAETPMAPVPLGPLGETYCEEHGEKIYFFCENDAEFLCVFCREGPTHQAHTVGFLDEAIQPYRDRLRSRLEALSTERDEIEDVKCQEDQKLQVLLTQIESKKHQVETAFERLQQELEQQRCLLLARLRELEQQIWKERDEYITKVSEEVTRLGAQVKELEEKCQQPASELLQDVRVNQSRCEMKTFVSPEAISPDLVKKIRDFHRKILTLPEMMRMFSENLAHHLEIDSGVITLDPQTASRSLVLSEDRKSVRYTRQKKSLPDSPLRFDGLPAVLGFPGFSSGRHRWQVDLQLGDGGGCTVGVAGEGVRRKGEMGLSAEDGVWAVIISHQQCWASTSPGTDLPLSEIPRGVRVALDYEAGQVTLHNAQTQEPIFTFTASFSGKVFPFFAVWKKGSCLTLKG
B2: TRIM15 BCPS-YFP (domain or fragment, UniProt Q9C019 65-465)
chain: QAETPMAPVPLGPLGETYCEEHGEKIYFFCENDAEFLCVFCREGPTHQAHTVGFLDEAIQPYRDRLRSRLEALSTERDEIEDVKCQEDQKLQVLLTQIESKKHQVETAFERLQQELEQQRCLLLARLRELEQQIWKERDEYITKVSEEVTRLGAQVKELEEKCQQPASELLQDVRVNQSRCEMKTFVSPEAISPDLVKKIRDFHRKILTLPEMMRMFSENLAHHLEIDSGVITLDPQTASRSLVLSEDRKSVRYTRQKKSLPDSPLRFDGLPAVLGFPGFSSGRHRWQVDLQLGDGGGCTVGVAGEGVRRKGEMGLSAEDGVWAVIISHQQCWASTSPGTDLPLSEIPRGVRVALDYEAGQVTLHNAQTQEPIFTFTASFSGKVFPFFAVWKKGSCLTLKG
B3: TRIM15 RBC-YFP (domain or fragment, UniProt Q9C019 1-345)
chain: MPATPSLKVVHELPACTLCAGPLEDAVTIPCGHTFCRLCLPALSQMGAQSSGKILLCPLCQEEEQAETPMAPVPLGPLGETYCEEHGEKIYFFCENDAEFLCVFCREGPTHQAHTVGFLDEAIQPYRDRLRSRLEALSTERDEIEDVKCQEDQKLQVLLTQIESKKHQVETAFERLQQELEQQRCLLLARLRELEQQIWKERDEYITKVSEEVTRLGAQVKELEEKCQQPASELLQDVRVNQSRCEMKTFVSPEAISPDLVKKIRDFHRKILTLPEMMRMFSENLAHHLEIDSGVITLDPQTASRSLVLSEDRKSVRYTRQKKSLPDSPLRFDGLPAVLGFPGFS
B4: TRIM15 B-box-YFP (domain or fragment, UniProt Q9C019 64-129)
chain: EQAETPMAPVPLGPLGETYCEEHGEKIYFFCENDAEFLCVFCREGPTHQAHTVGFLDEAIQPYRDR
B5: TRIM15 CPS-YFP (domain or fragment, UniProt Q9C019 120-465)
chain: DEAIQPYRDRLRSRLEALSTERDEIEDVKCQEDQKLQVLLTQIESKKHQVETAFERLQQELEQQRCLLLARLRELEQQIWKERDEYITKVSEEVTRLGAQVKELEEKCQQPASELLQDVRVNQSRCEMKTFVSPEAISPDLVKKIRDFHRKILTLPEMMRMFSENLAHHLEIDSGVITLDPQTASRSLVLSEDRKSVRYTRQKKSLPDSPLRFDGLPAVLGFPGFSSGRHRWQVDLQLGDGGGCTVGVAGEGVRRKGEMGLSAEDGVWAVIISHQQCWASTSPGTDLPLSEIPRGVRVALDYEAGQVTLHNAQTQEPIFTFTASFSGKVFPFFAVWKKGSCLTLKG
B6: TRIM15 R-CPS-YFP (protein, UniProt Q9C019)
chain: MPATPSLKVVHELPACTLCAGPLEDAVTIPCGHTFCRLCLPALSQMGAQSSGKILLCPLCQEEEQAETPMAPVPLGPLGEDEAIQPYRDRLRSRLEALSTERDEIEDVKCQEDQKLQVLLTQIESKKHQVETAFERLQQELEQQRCLLLARLRELEQQIWKERDEYITKVSEEVTRLGAQVKELEEKCQQPASELLQDVRVNQSRCEMKTFVSPEAISPDLVKKIRDFHRKILTLPEMMRMFSENLAHHLEIDSGVITLDPQTASRSLVLSEDRKSVRYTRQKKSLPDSPLRFDGLPAVLGFPGFSSGRHRWQVDLQLGDGGGCTVGVAGEGVRRKGEMGLSAEDGVWAVIISHQQCWASTSPGTDLPLSEIPRGVRVALDYEAGQVTLHNAQTQEPIFTFTASFSGKVFPFFAVWKKGSCLTLKG

The molecules below were run against T1, human TRIM15 (untagged) (human) (UniProt Q9C019) (assay: co-IP; HEK293 cells co-transfected, lysed 48 h later in triple detergent lysis buffer (100 mM Tris pH 8.0, 1% Triton-X-100, 0.5% sodium deoxycholate, 0.2% SDS, 150 mM NaCl); precipitated on protein-G beads with antibodies to TRIM15, isotype specific antibodies as control; western blot with antibodies to GFP to detect MLV Gag-GFP).
T1 sequence: B1 chain

Row | Molecule | binding
1 | MLV Gag-GFP | binds

The molecules below were run against MLV Gag precursor protein (from the full length Friend MLV genome) (Friend 57 murine leukemia virus) (assay: co-IP; HEK293 cells co-transfected, lysed 48 h later in triple detergent lysis buffer (100 mM Tris pH 8.0, 1% Triton-X-100, 0.5% sodium deoxycholate, 0.2% SDS, 150 mM NaCl); precipitated on protein-G beads with antibodies to MLV capsid, isotype specific antibodies as control; western blot with antibodies to GFP to detect TRIM15-YFP derivatives).

Row | Molecule | binding
2 | B1 | binds
3 | B2 | binds
4 | B3 | binds
5 | B4 | binds
6 | B5 | no binding
7 | B6 | no binding
